Measurements as given in PubChem BioAssay AID2685 (National Center for Advancing Translational Sciences (NCATS), 2010).
In all, about 320,000 compounds went through this assay and about 2,100 (0.66%) were called active. This list was built around the results that the source calls inconclusive (neither active nor inactive); the mix of calls is not that of the screen. Calls come from the whole dose curve; as a rule, active = well fitted inhibition curve with a large enough effect in the signal ratio, with a control signal flat (not every such curve was filed as active); inconclusive = small, poorly fitted or top-dose-only effect, or effect the other way, or a change in a side signal; inactive = flat fitted curve, though single readings scatter; the % refers to the signal ratio. A potency beside an inconclusive call is a rough fit, not a confirmed value.

assay: qHTS Assay for Lipid Storage Modulators in Drosophila S3 Cells; conditions: BODIPY lipid droplet fluorescence, 18-24 h, cells fed with added oleic acid; lipid storage change, negative = inhibition: at 46.1 µM (top of the series) unless noted
In short: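 Laser-scanning cytometry quantifies lipid droplet accumulation (500–530 nm total intensity; droplet/cell object ratio) in oleic acid-fed (400 uM added) Drosophila S3 cells treated with a concentration series. 20 uM Triacsin C defined 100% inhibition.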
% is set by controls: 0 for no effect and ±100 for the full control effect; potency is the fitted concentration of half-maximal effect.

| SMILES | lipid storage change, negative = inhibition | Potency | outcome |
| --- | --- | --- | --- |
| COc1ccc(NC(=O)Cn2cc(C(=O)C3CC3)c3ccccc32)cc1 | inconclusive: 195% | – | – |
| COc1ccc(/C=C(\NC(=O)c2ccco2)C(=O)N2CCOCC2)cc1 | inconclusive: -37.2% | – | – |
| O=C(NC(=S)Nc1ccc(Cl)cn1)C(c1ccccc1)c1ccccc1 | inconclusive: -20.9% | – | – |
| Cc1cc(/C=C(\C#N)C(=O)N2CCOCC2)c(C)n1C1CCCC1 | inconclusive: 0.871% | – | – |
| CC1CC(C)CN(c2ccc(C(=O)OCC(=O)NC3CCCc4ccccc43)cc2[N+](=O)[O-])C1 (stereo unspecified) | inconclusive: -1.21% | – | – |
| CC(C)c1ccc(NC(=O)NC2(C(=O)NCc3cccnc3)CCCCC2)cc1 | – | inconclusive: 0.651 µM [activator, full curve] | – |
| O=C(c1cc(-c2ccc(O)cc2)on1)N1CCN(c2ccc(F)cc2)CC1 | inactive: 5.87% | – | – |
| Cc1cc(N/N=C/c2cccc(Cl)c2)nc(-n2nc(C)cc2C)n1 | – | inconclusive: 29.1 µM [cytotoxic, single point] | – |
| COc1ccccc1N(C(=O)c1ccncc1)c1nc(-c2ccc([N+](=O)[O-])cc2)cs1 | – | inconclusive: 4.11 µM [activator, partial curve] | – |
| COC(=O)c1ccc(Sc2nnnn2-c2ccccc2)c([N+](=O)[O-])c1 | – | inconclusive: 32.6 µM [falling, single point] | – |
| CCn1c(-c2ccc3[nH]c(C)c(C)c3c2)n[nH]c1=S | inconclusive: 25.6% | – | – |
| CCc1cc(C(=O)NCC(C)(C)N2CCOCC2)sc1C | inconclusive | – | – |
| N#C/C(=C/c1ccc(CNC(=O)C(=O)Nc2cc(Cl)cc(Cl)c2)o1)C(=O)NCc1cccnc1 | – | inconclusive: 16.4 µM [falling, single point] | – |
| CSC(SC)=C(C#N)C(=O)c1ccccc1 | – | inconclusive: 32.6 µM [falling, partial curve, poor fit] | – |
| COCC1CCN(C(=O)C2CCC(=O)N(CCc3cccc(F)c3)C2)CC1 (stereo unspecified) | inconclusive: 22.4% | – | – |
| CC(=O)Nc1ccc(OCC(=O)N2CCC(Cc3ccccc3)CC2)cc1 | inactive: -0.754% | – | – |
| Cc1ccc(CNC(=O)Cn2ncn3cccc3c2=O)cc1 | inconclusive: 9.06% | – | – |
| O=C(Nc1ccc(F)c(F)c1)C1CCCCC1 | – | inconclusive: 0.0259 µM [falling, full curve, poor fit] | – |
| NC(=O)CC(NC(=O)c1ccccc1)c1ccc(NCCN2CCOCC2)c([N+](=O)[O-])c1 (stereo unspecified) | – | inconclusive: 23.1 µM [activator, partial curve] | – |
| Cc1ccc(C)c(S(=O)(=O)Nc2ccc3sc(C)nc3c2)c1 | inconclusive: -17.5% | – | – |
| Cn1c(=O)n(C)c2cc(S(=O)(=O)N3CCCc4ccccc43)ccc21 | – | inconclusive: 0.82 µM [activator, single point] | – |

An excerpt from further up, for reference:

| SMILES | lipid storage change, negative = inhibition | Potency | outcome |
| --- | --- | --- | --- |
| COc1ccc(NC(=O)Cn2cc(C(=O)C3CC3)c3ccccc32)cc1 | inconclusive: 195% | – | – |
| COc1ccc(/C=C(\NC(=O)c2ccco2)C(=O)N2CCOCC2)cc1 | inconclusive: -37.2% | – | – |

Remaining list, next part

| SMILES | lipid storage change, negative = inhibition | Potency | outcome |
| --- | --- | --- | --- |
| N#Cc1ccc(CSc2ccc(S(=O)(=O)N3CCCC3)cn2)cc1 | – | inconclusive: 0.0046 µM [activator, full curve, poor fit] | – |
| COc1cc(NS(=O)(=O)c2ccc3c(c2)C(C)(C)C(=O)N3C)cc(OC)c1 | inconclusive: -44.9% | – | – |
| O=C(O)c1cc(-c2ccccc2Cl)n[nH]1 | inconclusive: -198% | – | – |
| CCOCCCNC(=O)c1ccc(C2SCC(=O)N2Cc2ccccc2)cc1 (stereo unspecified) | – | inconclusive: 0.731 µM [activator, full curve] | – |
| CC1=CC(C)(C)N(S(=O)(=O)c2ccc(C)cc2)c2ccc(C)cc21 | – | inconclusive: 0.103 µM [falling, full curve] | – |
| CCOc1cnc(-c2ccc(OC)cc2)o1 | inconclusive: 12.6% | – | – |
| CC(C)(CNC(=O)c1cc2ccccc2o1)N1CCOCC1 | inconclusive: 36.4% | – | – |
| O=C(CN1C(=O)C2C3C=CC(C3)C2C1=O)Nc1cccc2c1CCCC2 (stereo unspecified) | inconclusive: -16% | – | – |
| CCCCn1c(N)c(N(CCC(C)C)C(=O)c2oc3ccc(OCC)cc3c2C)c(=O)[nH]c1=O | inconclusive | – | – |
| C=CCSc1nc2c(c(=O)n(C)c(=O)n2C)n1CC | – | inconclusive: 29.1 µM [activator, single point] | – |
| Cc1ccc(-c2nnc(CSc3nnc(C)s3)o2)cc1 | inconclusive: -1.58% | – | – |
| O=C(Nc1ccccc1)OCCNC(=O)c1cccc(Br)c1 | inconclusive: -23.9% | – | – |
| COc1ccc(-n2nc(C(=O)N3CCN(Cc4ccc5c(c4)OCO5)CC3)c3ccccc3c2=O)cc1 | – | inconclusive: 11.6 µM [activator, partial curve, poor fit] | – |
| COc1ccc(-n2nnc3c(=O)n(Cc4ccccc4C)cnc32)cc1 | – | inconclusive: 0.0046 µM [falling, full curve, poor fit] | – |
| Cc1cc2c(cc1C)NC1=C(N2)OC(c2cccc(O)c2)C1=O (stereo unspecified) | inconclusive: 19% | – | – |
| Cc1c(Cl)cccc1NC(=O)CSC(N)=O | inconclusive: -10.6% | – | – |
| COC(=O)C(CC(=O)c1ccc(C)cc1)n1cccn1 (stereo unspecified) | inconclusive: -0.135% | – | – |
| CCOC(=O)c1[nH]c2ccccc2c1NC(=O)CN1CCCCC1 | inconclusive: 7.03% | – | – |
| CCCc1ccc(C(=O)CN2C(=O)C(=O)N(C3CCCC3)C2=O)cc1 | inconclusive: 5.25% | – | – |
| COc1ccc(C(=O)NC(=S)N2CCCCC2)cc1[N+](=O)[O-] | inconclusive: -42.3% | – | – |
| S=C1NCCOCCOCCOCCN1 | inactive: -10.2% | – | – |

| SMILES | lipid storage change, negative = inhibition | Potency | outcome |
| --- | --- | --- | --- |
| COc1ccc(/C=N/NC(=O)c2ccc(COc3ccccc3Cl)o2)cc1 | inconclusive: -34.2% | – | – |
| CC(C)(C)NC(=O)COc1ccc(CNCCc2ccccc2)cc1 | inconclusive: 30.8% | – | – |
| O=C1c2oc3ccc(Br)cc3c(=O)c2C(c2cccc(F)c2)N1CCO (stereo unspecified) | inconclusive: 9.92% | – | – |
| COc1cc(-c2c(-c3ccc4c(c3)OCO4)noc2C)ccc1F | inconclusive: 78.9% | – | – |
| Cc1ccc(NC2CCCN(C(=O)C3CCCCC3)C2)cc1C (stereo unspecified) | inconclusive: -24.9% | – | – |
| CSc1ccccc1NC(=O)CN(C)Cc1c(O)ccc2ccccc12 | inconclusive: -32.9% | – | – |
| Cc1ccccc1C(=O)Nc1cccc(C(=O)N/N=C/c2ccccn2)c1 | inconclusive: -32% | – | – |
| COc1ccc(Cl)cc1NC(=S)N(CCCN1CCOCC1)Cc1cn(C)c2ccccc12 | inconclusive: 12.4% | – | – |
| Cc1ccc(-c2nc(C(Cl)Cl)c3ccccc3n2)cc1 | inconclusive: -13.1% | – | – |
| COc1ccc(S(=O)(=O)N2CC(=O)Nc3ccccc32)cc1C | – | inconclusive: 11.6 µM [falling, single point] | – |
| Cc1ccccc1Nc1nc(N)nc(CSc2nnc3ccccn23)n1 | inconclusive: -34.3% | – | – |
| CC(=O)N(C)C1=C(N2CCOCC2)C(=O)c2ccccc2C1=O | inactive: -6.67% | – | – |
| CS(=O)(=O)N(CC(=O)Nc1ccccc1-c1ccccc1)c1ccccc1 | inactive: 3.31% | – | – |
| CCOc1ccc2oc(C(=O)O)c(C)c2c1 | – | inconclusive: 0.0052 µM [falling, full curve, poor fit] | – |
| Cc1ccc(N(C(=O)CCC(=O)Nc2cc(C)on2)C(C(=O)NC2CCCC2)c2cccs2)cc1 (stereo unspecified) | – | inconclusive: 3.26 µM [activator, partial curve] | – |
| S=C1NC2(CCCCC2)Nc2ccccc21 | inconclusive: 15.2% | – | – |
| Cc1ccc(NC2c3ccccc3C(=O)N2CCN2CCOCC2)cc1 (stereo unspecified) | inconclusive: 2.53% | – | – |
| COc1ccccc1-n1ccn(CC(=O)Nc2ccc(C)cc2Cl)c(=O)c1=O | inconclusive: 30.7% | – | – |
| COc1ccc(NC(=O)C23CCC(C2)C(C)(C)C3=O)cc1 (stereo unspecified) | inconclusive: -15.3% | – | – |
| CCCCOc1ccccc1C1C(C(N)=O)=C(C)Nc2nnnn21 (stereo unspecified) | inconclusive: -10.8% | – | – |
| O=C(CSCc1ccc(Cl)cc1)NN=C1CCCCCC1 | inconclusive: 17.2% | – | – |

Entries of single compounds, looked up by structure.
COc1ccc(Cl)cc1NC(=S)N(CCCN1CCOCC1)Cc1cn(C)c2ccccc12 is listed as lipid storage change, negative = inhibition: inconclusive: 12.4%
CS(=O)(=O)N(CC(=O)Nc1ccccc1-c1ccccc1)c1ccccc1 is listed as lipid storage change, negative = inhibition: inactive: 3.31%

Carrying on.

| SMILES | lipid storage change, negative = inhibition | Potency | outcome |
| --- | --- | --- | --- |
| CCOc1ccc(NC(=O)CN(C)C(=O)C2CCN(c3ncnc4sc(C)c(C)c34)CC2)cc1OCC | inconclusive: -40.4% | – | – |
| Cc1ccccc1NC(=O)c1ccc(NC(=O)C2CCCO2)cc1 (stereo unspecified) | inconclusive: 53.8% | – | – |
| Nc1nnc(Cc2c[nH]c3ccccc23)s1 | inconclusive: 15.4% | – | – |
| CN(C)c1ccc(C(CNC(=O)Cc2cccc3ccccc23)N(C)C)cc1 (stereo unspecified) | inconclusive: 74.1% | – | – |
| CCOCCCNC(c1ccccc1)c1ccncc1 (stereo unspecified) | – | – | inactive [at 46.1 µM] |
| CCCCN(CC)C(=O)c1cc2c(=O)[nH]c3ccc(C)cc3c2s1 | inconclusive: -53.1% | – | – |
| CC1(C)C(=O)Nc2ccccc2N1C(=O)COC(=O)CNS(=O)(=O)c1ccc(F)c(F)c1F | inconclusive: 9.06% | – | – |
| Cc1cccc(OCCOC(=O)C2CCN(S(=O)(=O)c3cccs3)CC2)c1 | inconclusive: -42.2% | – | – |
| O=C(C1CCCC1)N1CCN(S(=O)(=O)c2ccc(Cl)cc2)CC1 | inconclusive: 7.8% | – | – |
| CC1(C)C(C=C(Cl)Cl)C1C(=O)N(Cc1ccc(Cl)cc1)C1CCS(=O)(=O)C1 (stereo unspecified) | – | active: 8.2 µM | – |
| COc1ccc(CN(Cc2ccncc2)C(=O)CCC(=O)O)cc1 | inconclusive: -41.1% | – | – |
| CCN(CC)S(=O)(=O)c1cc(NC(=O)c2n[nH]c(=O)c3ccccc23)ccc1C | inconclusive: 74% | – | – |
| CCc1ccc(N(C(=O)c2snc(C(N)=O)c2N)C(C(=O)NC2CCCC2)c2ccncc2)cc1 (stereo unspecified) | inconclusive: 27.7% | – | – |
| COc1ccccc1CN1CC(C(=O)NCc2ccc(N3CCCC3=O)cc2)CCC1=O (stereo unspecified) | inconclusive: 55.1% | – | – |
| CCc1ccc(OCCSc2nc3ccccc3n2CC(=O)O)cc1 | – | inconclusive: 2.59 µM [falling, full curve, poor fit] | – |
| Cc1noc(NS(=O)(=O)c2ccc(NC(=O)CC(C)C)cc2)c1C | inconclusive: 110% | – | – |
| COc1ccc(N(CC(=O)Nc2ccc3c(c2)OCCO3)S(=O)(=O)c2c(C)nn(C)c2C)cc1 | inconclusive: -1.94% [at 9.22 µM] | – | – |
| COCCSc1ccccc1C(=O)NCCc1ccccc1 | inconclusive: -3.32% | – | – |
